This passage reports binding results from paper PMC7703752, “Proteome-level assessment of origin, prevalence and function of leucine-aspartic acid (LD) motifs” (Bioinformatics, 2019).

No constants are given. Whether binding was seen depends on the method and setting.

Assay [1] has as its target T1, RALGAPA2 LD motif peptide, FITC-Ahx-labelled (human).
T1 sequence (peptide, FITC-Ahx on the N-terminus): GDDVLDKLLENIGHT
Kind of assay: condition: GIT1 up to 630 μM (start of the MST dilution series); fluorescence polarisation + MST; 'additional DA and MST experiments' with GIT1: GIT1 serially diluted (MST from 630 μM, standard capillaries, 25 °C), FITC-Ahx peptide 0.1 μM; 20 mM HEPES pH 7.5, 150 mM NaCl, 2 mM EDTA, 2 mM DTT, Tween-20; both purified.

The target of assay [2] is T2, NCOA2 LD motif peptide, FITC-Ahx-labelled (human).
T2 sequence (peptide, FITC-Ahx on the N-terminus): SELDNLEEILDDLQNSQ
Described as above.

B1: rat GIT1 (647-770) (domain or fragment, UniProt Q9Z272 647-770)
chain: GLPSTEDVILKTEQVTKNIQELLRAAQEFKHDSFVPCSEKIHLAVTEMASLFPKRPALEPVRSSLRLLNASAYRLQSECRKTVPPEPGAPVDFQLLTQQVIQCAYDIAKAAKQLVTITTREKKQ
Take B1: the binding result in assay [1] and in assay [2] was “no binding” in each case.
